Results are given in words; binding and its absence hold for the method and conditions named. In cells and extracts the contact can be indirect. Where a sequence is shown, tags or fusion partners need not be part of it.
Columns and labels:
Assay in all cases: co-IP; MYC-tagged receptor ∆KD and GFP-tagged SERK ∆KD coexpressed in N. benthamiana leaves; CLE19 (20 μm) infiltrated 3-4 h before; GFP-Trap beads, 4 °C, 4 h; anti-Myc blot
[1] = target: T1, SERK2^∆KD-GFP (SERK2 with kinase domain deletion, GFP-tagged) (Arabidopsis) (UniProt Q9XIC7)
T1 sequence: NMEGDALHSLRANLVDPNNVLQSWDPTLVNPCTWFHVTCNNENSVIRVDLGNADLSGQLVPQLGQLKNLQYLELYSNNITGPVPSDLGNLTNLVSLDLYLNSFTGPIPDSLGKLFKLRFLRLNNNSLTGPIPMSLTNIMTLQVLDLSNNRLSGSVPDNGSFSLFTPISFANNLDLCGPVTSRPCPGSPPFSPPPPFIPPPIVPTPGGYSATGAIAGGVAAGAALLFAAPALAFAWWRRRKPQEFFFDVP

[2] = target: T2, SERK1^∆KD-GFP (SERK1 with kinase domain deletion, GFP-tagged) (Arabidopsis) (UniProt Q94AG2)
T2 sequence: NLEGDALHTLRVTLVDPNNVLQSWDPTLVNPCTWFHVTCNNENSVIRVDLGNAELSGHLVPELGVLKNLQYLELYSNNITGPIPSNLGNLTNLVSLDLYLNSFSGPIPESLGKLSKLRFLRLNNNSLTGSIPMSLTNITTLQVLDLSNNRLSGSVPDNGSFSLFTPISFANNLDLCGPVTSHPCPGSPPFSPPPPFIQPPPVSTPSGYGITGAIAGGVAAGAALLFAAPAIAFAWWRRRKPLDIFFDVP

[3] = target: T3, BAK1^∆KD-GFP (SERK3/BAK1 with kinase domain deletion, GFP-tagged) (Arabidopsis) (UniProt Q94F62)
T3 sequence: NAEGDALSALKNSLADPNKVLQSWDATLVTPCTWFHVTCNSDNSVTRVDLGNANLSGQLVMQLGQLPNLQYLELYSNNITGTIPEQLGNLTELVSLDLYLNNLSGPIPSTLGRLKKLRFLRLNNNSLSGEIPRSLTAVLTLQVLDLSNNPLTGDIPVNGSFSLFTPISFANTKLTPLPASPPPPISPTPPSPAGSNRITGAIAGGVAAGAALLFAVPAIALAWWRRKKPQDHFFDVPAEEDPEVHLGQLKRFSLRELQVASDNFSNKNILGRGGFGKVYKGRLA

Measured: binding

B1: PXL1^R417AR419A∆KD-MYC (domain or fragment, UniProt Q9FRS6 24-713)
chain: ETFQNSEQEILLAFKSDLFDPSNNLQDWKRPENATTFSELVHCHWTGVHCDANGYVAKLLLSNMNLSGNVSDQIQSFPSLQALDLSNNAFESSLPKSLSNLTSLKVIDVSVNSFFGTFPYGLGMATGLTHVNASSNNFSGFLPEDLGNATTLEVLDFRGGYFEGSVPSSFKNLKNLKFLGLSGNNFGGKVPKVIGELSSLETIILGYNGFMGEIPEEFGKLTRLQYLDLAVGNLTGQIPSSLGQLKQLTTVYLYQNRLTGKLPRELGGMTSLVFLDLSDNQITGEIPMEVGELKNLQLLNLMRNQLTGIIPSKIAELPNLEVLELWQNSLMGSLPVHLGKNSPLKWLDVSSNKLSGDIPSGLCYSRNLTKLILFNNSFSGQIPEEIFSCPTLVAVAIQKNHISGSIPAGSGDLPMLQHLELAKNNLTGKIPDDIALSTSLSFIDISFNHLSSLSSSIFSSPNLQTFIASHNNFAGKIPNQIQDRPSLSVLDLSFNHFSGGIPERIASFEKLVSLNLKSNQLVGEIPKALAGMHMLAVLDLSNNSLTGNIPADLGASPTLEMLNVSFNKLDGPIPSNMLFAAIDPKDLVGNNGLCGGVLPPCSKSLALSAKGRNPGRIHVNHAVFGFIVGTSVIVAMGMMFLAGRWIYTRWDLYSNFAREYIFCKKPREEWPWRLVAFQRLCFTAGDILSH
no binding: all assays above

B2: PXY^∆KD-MYC (PXY with kinase domain deletion, MYC-tagged) (domain or fragment, UniProt Q9FII5 30-718)
chain: LKFSPQLLSLLSLKTSLSGPPSAFQDWKVPVNGQNDAVWCSWSGVVCDNVTAQVISLDLSHRNLSGRIPIQIRYLSSLLYLNLSGNSLEGSFPTSIFDLTKLTTLDISRNSFDSSFPPGISKLKFLKVFNAFSNNFEGLLPSDVSRLRFLEELNFGGSYFEGEIPAAYGGLQRLKFIHLAGNVLGGKLPPRLGLLTELQHMEIGYNHFNGNIPSEFALLSNLKYFDVSNCSLSGSLPQELGNLSNLETLFLFQNGFTGEIPESYSNLKSLKLLDFSSNQLSGSIPSGFSTLKNLTWLSLISNNLSGEVPEGIGELPELTTLFLWNNNFTGVLPHKLGSNGKLETMDVSNNSFTGTIPSSLCHGNKLYKLILFSNMFEGELPKSLTRCESLWRFRSQNNRLNGTIPIGFGSLRNLTFVDLSNNRFTDQIPADFATAPVLQYLNLSTNFFHRKLPENIWKAPNLQIFSASFSNLIGEIPNYVGCKSFYRIELQGNSLNGTIPWDIGHCEKLLCLNLSQNHLNGIIPWEISTLPSIADVDLSHNLLTGTIPSDFGSSKTITTFNVSYNQLIGPIPSGSFAHLNPSFFSSNEGLCGDLVGKPCNSDRFNAGNADIDGHHKEERPKKTAGAIVWILAAAIGVGFFVLVAATRCFQKSYGNRVDGGGRNGGDIGPWKLTAFQRLNFTADDVVECL
no binding: all assays above

Reference: PMC10247778, “PXL1 and SERKs act as receptor–coreceptor complexes for the CLE19 peptide to regulate pollen development” (Nature Communications, 2023)
